PubChem BioAssay AID504784, Drosophila RNAi Screening Center – 2011

- Purpose: 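Genome-wide knock-down for genes giving too much or too little stored lipid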 (primary screen)
- Cells: Drosophila Kc167 embryonic cells
- Reagents: long dsRNA against Drosophila genes, about 250 ng dsRNA per well
- Duration: 4 days
- Challenge: cells fed 400 µM oleic acid bound to BSA
- Measurement: 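Microscope images give a droplet-to-nucleus area ratio, taken as log and converted to a screen-wide B-score; higher values mean greater lipid storage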
- Reading the numbers: droplet/nuclear area B-score: higher = more stored lipid (overstorage)
The deposit covers about 17,000 reagents; shown is an unselected part of those with a known target gene and a result. 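Each column is one replicate's B-score; the combined score over replicates was not deposited, so single values may mislead.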 Names joined by + are all predicted targets of the reagent.

| target | amplicon | droplet/nuclear area B-score, replicate 1 | droplet/nuclear area B-score, replicate 2 | droplet/nuclear area B-score, replicate 3 |
| --- | --- | --- | --- | --- |
| CG34376 | DRSC14695 | 0.365 | 0.984 | – |
| CG34376 | DRSC14696 | 0.238 | 1.95 | – |
| CG34376 | DRSC14701 | -0.892 | -0.00698 | – |
| CG13501 | DRSC04146 | -0.93 | 0.712 | – |
| Surf4 | DRSC16875 | -0.854 | 0.2 | – |
| CG43386 | DRSC17980 | 2.69 | -0.776 | -0.0641 |
| TBPH | DRSC04660 | 1.07 | 0.796 | – |
| CAH4 | DRSC22433 | -0.0642 | 1.14 | – |
| PPYR1 | DRSC19612 | -0.592 | -0.264 | – |
| CG6569 | DRSC16067 | -0.456 | 0.0806 | – |
| tefu | DRSC16060 | -0.217 | 1.88 | – |
| CG33252 | DRSC19162 | 2.45 | 0.752 | – |
| Rat1 | DRSC02044 | -1.32 | -0.586 | – |
| APP-BP1 | DRSC10920 | -0.0107 | 0.173 | – |
| Trf4-2 | DRSC15237 | 0.131 | -0.126 | – |
| CG10841 | DRSC14271 | -0.0743 | 9.16 | – |
| CG14710 | DRSC14933 | -3.98 | -7.22 | – |
| Or65a | DRSC08808 | 1.33 | 0.314 | – |
| crol | DRSC03514 | 0.15 | 0.0111 | – |
| crol | DRSC21348 | 2.74 | -0.00394 | – |
| CG12376 | DRSC06144 | 0.627 | 0.509 | – |
| CG42820 + CG42819 | DRSC02264 | 1.22 | -0.957 | – |
| CG42820 + CG42819 | DRSC02265 | 0.791 | -1.61 | – |
| Lsp2 | DRSC09841 | -0.958 | -0.137 | – |
| Lsp2 | DRSC11216 | -0.385 | -0.527 | – |
| CG15130 | DRSC02430 | -1.42 | -0.877 | – |
| CG14780 | DRSC18566 | 1.4 | -0.055 | – |
| Apt1 | DRSC10348 | 0.722 | 0.444 | – |
| CG6867 | DRSC20013 | 0.576 | 0.97 | -0.392 |
| CG32204 | DRSC09574 | -0.426 | 1.91 | – |
| Rab26 | DRSC11837 | 0.626 | -0.589 | 1.03 |
| Rab26 | DRSC11838 | 0.112 | 0.78 | – |
| Rab26 | DRSC11839 | -2 | -1.51 | – |
| gfzf | DRSC12506 | 0.00729 | 0.289 | – |
| gfzf | DRSC21874 | -0.332 | -0.485 | – |
| PH4alphaSG1 | DRSC15080 | -0.962 | -0.643 | – |
| Spn100A | DRSC14596 | -1.55 | 1.37 | – |
| CG32260 | DRSC08084 | -1.3 | 0.00954 | – |
| CG31998 | DRSC17137 | 0.865 | – | – |
| CG31998 | DRSC17138 | 0.422 | -0.669 | – |
| CG32488 | DRSC08549 | 1.34 | 0.947 | – |
| CG32488 | DRSC21537 | 2.03 | -0.0814 | – |
| w-cup | DRSC03048 | 0.597 | -0.617 | – |
| Srp19 | DRSC11288 | -2.17 | -0.268 | – |

Continued (8 carried over from the part before).
| target | amplicon | droplet/nuclear area B-score, replicate 1 | droplet/nuclear area B-score, replicate 2 | droplet/nuclear area B-score, replicate 3 |
| --- | --- | --- | --- | --- |
| Spn100A | DRSC14596 | -1.55 | 1.37 | – |
| CG32260 | DRSC08084 | -1.3 | 0.00954 | – |
| CG31998 | DRSC17137 | 0.865 | – | – |
| CG31998 | DRSC17138 | 0.422 | -0.669 | – |
| CG32488 | DRSC08549 | 1.34 | 0.947 | – |
| CG32488 | DRSC21537 | 2.03 | -0.0814 | – |
| w-cup | DRSC03048 | 0.597 | -0.617 | – |
| Srp19 | DRSC11288 | -2.17 | -0.268 | – |
| CG14160 | DRSC10161 | 1.2 | 0.222 | – |
| mnb | DRSC20058 | 1.47 | 2.57 | – |
| mnb | DRSC20353 | -1.49 | -0.605 | – |
| mnb | DRSC23347 | 0.196 | -0.846 | – |
| CG8010 | DRSC20072 | -3.17 | -2.84 | – |
| insc | DRSC04695 | 2.39 | 1.19 | – |
| CG4476 | DRSC10424 | 0.289 | -1 | – |
| Usp1 | DRSC14155 | 0.77 | – | – |
| l(2)k09848 | DRSC04894 | 0.491 | -0.00753 | – |
| CG11251 | DRSC09825 | 1.57 | 0.316 | – |
| CG7914 | DRSC20068 | 0.0868 | 1.47 | – |
| Hand | DRSC02656 | -1.57 | -1.18 | – |
| Tbca | DRSC15395 | 0.637 | – | – |
| ana2 | DRSC05952 | 1.51 | 2.23 | – |
| Vm34Ca | DRSC03475 | 0.334 | -0.335 | – |
| mAcon1 | DRSC01853 | -0.593 | -1.36 | – |
| CG15533 | DRSC15069 | -0.118 | -1.21 | – |
| CG10738 | DRSC09792 | 0.0432 | -0.0692 | – |
| CG6972 | DRSC16159 | -2.6 | -1.51 | – |
| alpha-Est4 | DRSC12616 | -0.269 | 0.295 | – |
| OSCP1 | DRSC06304 | 0.99 | 0.208 | – |
| HP5 | DRSC19773 | -1.21 | -0.533 | 0.499 |
| yellow-d2 | DRSC04591 | -0.251 | 1.33 | – |
| mEFTu2 | DRSC06163 | 0.503 | -0.00793 | – |
| CG14142 | DRSC10145 | -0.0251 | 1.01 | – |
| Acp53C14a | DRSC07224 | 0.456 | 0.00269 | – |
| CG30423 | DRSC04013 | 0.00689 | 0.691 | – |
| CG2310 | DRSC15438 | 0.0122 | -0.099 | – |
| Acbp4 | DRSC11023 | 1.05 | -1.48 | – |
| lin-28 | DRSC10261 | – | 1.29 | – |
| exu | DRSC07615 | -0.883 | -0.593 | – |
| CG30098 | DRSC05605 | 0.0713 | -0.123 | – |
| CG18675 | DRSC08536 | -0.318 | 0.0602 | – |
| Dpm1 | DRSC02018 | -0.644 | -0.325 | – |
| CG7384 | DRSC03053 | -0.0162 | 0.717 | – |
| Lk6 | DRSC12867 | -0.491 | -1.58 | – |
| Lk6 | DRSC16728 | -0.203 | -5.58 | – |
| CG32212 + hpRNA:CR33940 | DRSC09618 | -0.0812 | 0.0257 | – |
| zpg | DRSC09702 | 0.458 | 0.369 | – |
